{"source": "patent US20120318750A1", "about": "“METHODS AND COMPOSITIONS FOR COMPLEX BINDING OF METAL IONS” (ChemseQ International AB, priority 2009, published 2012)", "key": {"[1]": {"test": "Flotation of copper ions with sequestering agent in a flotation cell, metal analysis of foam", "conditions": "1 mg copper as copper sulphate, pH 5.5"}, "[2]": {"test": "Flotation of manganese ions with sequestering agent in a flotation cell, metal analysis of foam", "conditions": "1 mg manganese as manganese sulphate, pH 5.5", "source_text": "In order to investigate the separability of a sequestering agent according to the invention a small flotation cell was used. This flotation cell has a volume of approximately 1.6 l, a height of 315 mm and an inner diameter of 80 mm. Compressed air used to form the foam is led through a porous sintered glass filter of diameter 60 mm with a nominal porosity of 10-16 μm (“porosity 4”) mounted at the bottom of the flotation cell. At the top of the flotation cell a cylinder of an inner diameter of 30 mm and a height of 415 mm, with an outlet placed at 72 mm from the bottom, is mounted. The outlet is used to collect the foam and thereby the chelate according to the invention. At the top of the latter cylinder an adjustable valve is mounted to be able to better control the foaming and to direct the foam to the outlet.\nwas prepared from 2-aminoethanol, tert-butyl bromoacetate and tert-butyl 2-aminotetradecanoate as main ingredients using conventional techniques and was therafter mixed in 500 ml deionised water with 1 mg of manganese in the form of manganese sulphate (in a molar ratio of 1.2:1=sequestering agent: manganese sulphate) and a flotation agent (N,N-dimethyldodecylamine N-oxide, in a molar ratio of 10:1=flotation agent:sequestering agent).\nThe pH-value of the solution was adjusted to pH 5.5 with 0.1 M sodium hydroxide solution or 0.1 M hydrogen chloride solution. […]"}, "[3]": {"test": "Sequestering of metal ions in thermomechanical pulp, manganese content of pulp after treatment", "conditions": "TMP from spruce, 0.17 mmol sequestering agent, pH 6.2, 60 min; starting pulp 104 mg/kg", "protocol": "The cellulose pulp was removed directly after the refiner in a TMP-plant and its dry solids content was determined with the aid of “Mettler Toledo HR 73 Halogen Moisture Analyzer”. 70 g bone-dry cellulose pulp was then slushed in 1.4 l cold distilled water with the aid of a slusher of model “Lorentzon & Wettre App. 03, type 8-3, no. 723”. The cellulose pulp with a concentration of 4.8 percent by weight was filtered on a Büchner funnel and the filtrate was returned to be filtered again.\nThereafter the cellulose pulp was slushed in 1.4 l distilled water at a temperature of 55° C. The pulp suspension was left to stand for 1 h and was then filtered two times according to the same process being described above. […]\nwas prepared as described in Example 1 and added to a portion of the pulp. […] The pH was measured in the pulp suspension and it amounted to 6.2 and the cellulose pulp suspension was allowed to stand, i.e. the sequestering agent was allowed to work for a time of 60 min. […] The manganese content of the cellulose pulp was determined, on one hand, on non-treated pulp, and on the other hand on the portions having been treated with the respective sequestering agents according to the following: 1 g of bone-dry cellulose pulp was transferred to a Teflon-lined vessel specially designed for microwave oven digestion (Microwave Accelerated Reaction System, MARS 5, CEM). […]"}}}
{"smiles": "CCCCCCCCCCCCC(C(=O)O)N(CC(=O)O)CC(=O)O", "note": "(stereo not drawn) [2-dodecyl-3-carboxymethyl-3-azapentane diacid]", "values": [{"measurement": "concentration of copper in the foam relative to concentration in the solution before the flotation", "setting": "[1]", "value": "about thirteen times higher"}, {"measurement": "concentration of manganese in the foam relative to concentration in the solution before the flotation", "setting": "[2]", "value": "about two times higher"}]}
{"smiles": "O=C(O)CN(CCN(CC(=O)O)CC(=O)O)CCN(CC(=O)O)CC(=O)O", "note": "[DTPA, diethylenetriaminepentaacetic acid, reference compound]", "values": [{"measurement": "manganese content of the pulp after treatment and removal of chelates", "setting": "[3]", "value": 9.3, "unit": "mg/kg"}]}
{"smiles": "CCCCCCCCCCCCC(C(=O)O)N(CCN(CC(=O)O)CC(=O)O)CC(=O)O", "note": "(stereo not drawn) [2-dodecyl-3,6-di(carboxymethyl)-3,6-diazaoctane diacid]", "values": [{"measurement": "manganese content of the pulp after treatment and removal of chelates", "setting": "[3]", "value": 6.2, "unit": "mg/kg"}, {"measurement": "concentration of copper in the foam relative to concentration in the solution before the flotation", "setting": "[1]", "value": "about ten times higher"}, {"measurement": "concentration of manganese in the foam relative to concentration in the solution before the flotation", "setting": "[2]", "value": "about ten times higher"}]}
